# Measurements reported in PubChem BioAssay AID662 (National Center for Advancing Translational Sciences (NCATS), 2007).
# The list shows a part of the results. These are further read-outs of the screen, such as a control signal, another cell line or another target. No call is given for them. Most of these compounds were active or inconclusive in the main read-out, so they are no random draw. Words in brackets tell the shape of the fitted curve; partial curves, single points and poor fits give uncertain potencies.
# Experiment: Cell signaling CRE-BLA (Fsk stim)
# Conditions: CHO CRE-bla reporter (cAMP response element driving beta-lactamase), forskolin EC10, beta-lactamase ratio; measured here: 460 nm blue channel
# Procedure, shortened: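 AC50 values, positive or negative, reflect shifts in EC10 NKH 477-induced CRE-bla reporter activity in CHO cells. Incubation lasted 3 h at 37 °C before CCF4 substrate (2 h, room temperature) and ratiometric 460/530 nm reading.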
row,SMILES,AC50
1,COc1ccc(C2c3c(-c4cc(Cl)c(C)cc4O)n[nH]c3C(=O)N2Cc2cccnc2)cc1OC (stereo not drawn),"3.16 µM [rising, partial curve]"
2,O=C1CSC(=O)N1CCOCCN1C(=O)CSC1=O,"3.98 µM [rising, single point]"
3,CCCn1c(=O)n(C)c(=O)c2c(SCc3cc(C(C)=O)ccc3OCC)nc(C3CC3)nc21,"2.51 µM [rising, full curve]"
4,NC(=O)CCn1nc(-c2ccccc2)c2ccccc2c1=O,"10 µM [rising, single point]"
5,Cc1ccc(-c2nnc3ccc(SCC(=O)Nc4cc(C)on4)nn23)cc1,"10 µM [rising, single point]"
6,Cc1cccc(OCc2nnc(SCC(=O)Nc3ccc(C)c(C)c3)o2)c1,"0.794 µM [falling, full curve]"
7,Cc1ccc(OCC(=O)n2nc(C)cc2C)c(Br)c1,"0.00316 µM [rising, full curve, poor fit]"
8,CCOc1ccccc1NC(=O)CC1Nc2cc(C)c(C)cc2NC1=O (stereo not drawn),"10 µM [rising, partial curve]"
9,CC1C2CC(C(CN(C)C)/C2=N/O)C1(C)C (stereo not drawn),"0.00316 µM [falling, full curve]"
10,COCc1c(C(=O)OCc2nc(N)nc(Nc3ccccc3C)n2)oc2ccccc12,"10 µM [rising, partial curve]"
11,Brc1cc2c(cc1Cn1c(-c3cncs3)nc3ccccc31)OCO2,"2 µM [rising, full curve]"
12,COc1cccc(NC(=O)N2CCC(N3CCCCC3)CC2)c1,"15.8 µM [falling, partial curve]"
13,COc1ccc(N2CCN(C(=O)C3CCCN(S(=O)(=O)c4cccc5cccnc45)C3)CC2)cc1 (stereo not drawn),"15.8 µM [falling, single point]"
14,COc1cc(NC(=O)c2ccccc2Cl)c(OC)cc1NC(=O)CN1CCOCC1,"7.94 µM [rising, single point]"
15,O=C(CN1CCc2ccccc2C1)Nc1ccccc1N1CCCCCC1,"12.6 µM [rising, partial curve]"
16,O=C(CN1C(=O)C2C3C=CC(C3)C2C1=O)N1CCc2ccccc2C1 (stereo not drawn),"0.00398 µM [falling, full curve, poor fit]"
17,CC1(C)Cc2c(c(-c3ccco3)nc3n[nH]c(N)c23)CO1,"12.6 µM [rising, partial curve]"
18,Cc1ccccc1-n1c(SC/C(O)=C(\C#N)c2nc3ccccc3[nH]2)nnc1-c1ccncc1,"15.8 µM [rising, single point]"
19,COc1ccc(-n2nnnc2SCC#CCO)cc1,"31.6 µM [falling, partial curve, poor fit]"
20,COc1cc(C2Nc3cc(Cl)c(S(N)(=O)=O)cc3S(=O)(=O)N2)cc(OC)c1OC (stereo not drawn),"5.01 µM [rising, single point]"
21,CC(C)=C1C2C=CC1C(C(=O)Nc1cc(C)ccc1C)C2C(=O)O (stereo not drawn),"0.00316 µM [falling, full curve, poor fit]"
22,CCOC(=O)c1c(N)sn(-c2ccccc2C)c1=S,"2 µM [rising, full curve]"

row,SMILES,AC50
1,CCN(Cc1cc2cc(OC)ccc2[nH]c1=O)C(=O)c1ccncc1,"15.8 µM [rising, single point]"
2,Cc1ccc(Cn2c(NCCc3ccccc3)nc3c2c(=O)n(C)c(=O)n3C)cc1,"3.98 µM [rising, full curve]"
3,OC(COc1ccc(Cl)cc1)CN1CCCCC1 (stereo not drawn),"0.00631 µM [falling, full curve, poor fit]"
4,COc1ncc2nc(-c3cn(C)c4ccccc34)c(=O)n(CCc3ccccc3)c2n1,"1 µM [rising, full curve]"
5,CCCCCSc1nc2c(c(=O)[nH]c(=O)n2C)n1C(C)C,"10 µM [rising, partial curve]"
6,COc1ccc(-c2nc3cnc(N4CCN(C)CC4)nc3n(Cc3cccc(OC)c3)c2=O)cc1,"1.26 µM [rising, full curve]"
7,COCCN1Cc2cccc(C(=O)Nc3cccc(OC)c3)c2C1=O,"0.126 µM [rising, full curve]"
8,COc1ccccc1C(=O)Nc1c2c(nn1-c1cccc(C)c1C)CS(=O)C2 (stereo not drawn),"10 µM [rising, partial curve]"
9,CCCCCCn1c(-c2ccco2)nc2oc3cc(OC)ccc3c(=O)c2c1=O,"1.58 µM [rising, full curve]"
10,O=C(CCCn1c(=S)[nH]c2ccccc2c1=O)N1CCCCC1,"10 µM [rising, partial curve]"
11,Cn1c(NCc2ccco2)nc2ccccc21,"5.01 µM [falling, full curve]"
12,COc1ccc(C)cc1NC(=O)Cn1cnc2sc(C)c(S(=O)(=O)N3CCOCC3)c2c1=O,"12.6 µM [rising, single point]"
13,COc1ccc(CCn2c(C)cc3c(c2=O)C(c2ccncc2)C(C#N)=C(N)O3)cc1OC (stereo not drawn),"0.631 µM [rising, full curve, poor fit]"
14,O=C(c1cccc(C(=O)N2CCc3ccccc32)n1)N1CCc2ccccc21,"2.51 µM [rising, full curve, poor fit]"
15,COc1ccc2[nH]cc(CCNc3ccnc(-c4cccc(C#N)c4)n3)c2c1,"5.01 µM [falling, single point]"
16,Clc1cccc(Cl)c1NC1=NCCN1,"31.6 µM [falling, single point]"
17,COc1ccc(C(=O)N2c3cc4c(cc3C(C)=CC2(C)C)OCO4)cc1,"12.6 µM [falling, partial curve]"
18,COc1ccccc1NC(=O)CSc1ncnc2c1oc1ccccc12,"0.501 µM [rising, full curve]"
19,COc1ccc(OC)c2sc(N3CCCCC3)nc12,"10 µM [rising, single point]"
20,Cc1cccc(NC(=O)CN2CCCN(S(=O)(=O)c3ccc(Br)s3)CC2)c1,"0.398 µM [falling, partial curve]"
21,Cc1c(NC(=O)C(C)Sc2nnc(-c3ccccc3)o2)c(=O)n(-c2ccccc2)n1C (stereo not drawn),"0.631 µM [falling, full curve]"

# Part of the list above in a different format.
row | SMILES | AC50
8 | COc1ccccc1C(=O)Nc1c2c(nn1-c1cccc(C)c1C)CS(=O)C2 (stereo not drawn) | 10 µM [rising, partial curve]
14 | O=C(c1cccc(C(=O)N2CCc3ccccc32)n1)N1CCc2ccccc21 | 2.51 µM [rising, full curve, poor fit]
